Tests used:
[1] = test system: ovariectomized ICR female mice; assay: Bone tissue analysis by micro computed tomography: trabecular bone volume ratio in the osteoporosis mouse model; type: in vivo; conditions: OVX mice, oral gavage for 28 days, right femur, mean±SD; OVX+H2O 30.9, sham control 42.12
Description: (§1) Preparation of dead bacteria: 1 μl Lactobacillus paracasei strain GMNL-653 and the Lactobacillus salivarius strain GMNL-678 frozen viral was inoculated to 1 ml of MRS broth, respectively, and aerobically incubated at 37° C. for 20 hours (first activation). The next day, adding 15 μl culture solution (first activation) into 1.5 ml of MRS broth, and then and aerobically incubated at 37° C. for 20 hours (secondary activation) Estimating the bacteria number by using OD 600 nm to adjust the bacteria concentration to 4.1×10^8 CFU/ml, and heat-killed bacteria was carried by autoclaving at 121° C. for 15 minutes. […]
(§2) Micro computed tomography (SkyScan 1076, Kontizh, Belgium, with resolution of 18 μm) was taken of the backbone of the right femur far from the end was taken, and the trabecular bone volume ratio (i.e. bone volume/tissue volume; BV/TV) was analyzed by a software. The analyzed position was selected to include the area of 100 pieces under the growth plate excluding cortical bone. […] The obtained data in the experiments were analyzed with two-way analysis of variance, and the T-test statistical analysis. […] After comparisons, the abovementioned groups were analyzed statistically and noted by different marks to represent the statistically significant differences (* represents p<0.05; ** represents p<0.01 See Table 3 and Table 4, showing the results of the experiment 1.

[2] = test system: ovariectomized ICR female mice; assay: Femur bone mineral density by micro computed tomography in the osteoporosis mouse model; type: in vivo; conditions: OVX mice, oral gavage for 28 days, right femur, mean±SD; OVX+H2O 0.344, sham control 0.502
Description: as §1, §2

## NCCCC(O)(P(=O)(O)O)P(=O)(O)O [Alendronate]
[1]
  Trabecular bone volume ratio (BV/TV, bone volume/tissue volume): 34.88%
[2]
  Femur bone mineral density (BMD, excluding cortical bone): 0.426 g/mL

— patent US20180256654A1, “USE OF LACTOBACILLUS PARACASEI STRAIN GMNL-653 TO PREPARE COMPOSITION FOR RESISTING BONE LOSS” (GENMONT BIOTECH INC., priority 2017, published 2018)
